Test results reported in PubChem BioAssay AID588690 (Broad Institute, 2011).
The whole screen tested about 2,400 compounds, of which fewer than 10 were called active. The shares of active, inactive and inconclusive entries below differ from those in the screen.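 The calls were made as follows: active = highest replicate activation at or above 34% and every replicate reaching that threshold; inconclusive = meets only one of the two criteria; inactive = meets neither criterion.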

Chains of the proteins cited; added tags and fusions are not shown. Lines headed by an entry give the natural chain unless they say otherwise; changes in a name come on top.
UniProt P13346: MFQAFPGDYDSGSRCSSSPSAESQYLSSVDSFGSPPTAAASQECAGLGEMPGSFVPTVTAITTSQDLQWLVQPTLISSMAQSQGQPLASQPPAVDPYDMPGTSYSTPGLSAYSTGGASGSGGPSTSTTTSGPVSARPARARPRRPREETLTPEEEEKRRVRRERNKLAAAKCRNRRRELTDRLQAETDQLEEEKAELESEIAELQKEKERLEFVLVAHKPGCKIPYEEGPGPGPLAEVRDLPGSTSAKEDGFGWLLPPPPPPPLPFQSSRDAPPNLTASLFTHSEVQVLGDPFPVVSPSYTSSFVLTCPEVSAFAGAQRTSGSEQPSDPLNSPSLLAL

Target: Protein FosB (Mus musculus) (UniProt P13346)
Experiment: activators of mouse delta FosB DNA binding, confirmation, biochemical, fluorescence polarization, TAMRA-CDK5 oligo, cherry-picked samples (AID 588690);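 also: higher polarization means more probe DNA bound by delta FosB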
Conditions: purified delta FosB, at 24.9 µM, hits give high values, normalised: neutral wells 0, positive control 100

Row | Compound | activation
1 | CCOC(=O)c1c(NC(=O)C(NCCN(C)C)c2ccccc2)sc2c1CCCC2 (stereo not drawn) | inconclusive: 3.52%
2 | COc1ccc(-c2cc3c(=O)n(CC(=O)NCc4ccc(F)cc4)ncn3n2)cc1 | inconclusive: 9.83%
3 | COc1cc2[nH]c(=O)c(C(=O)NCCCN3CCCCC3)c(O)c2cc1OC | inconclusive: 7.55%
4 | C/C(=C\C=C(C#N)C#N)c1cc(C#N)c(N)o1 | inconclusive: 7.27%
5 | Cc1ccc(NC(=O)c2ccc3nc(N4CCOCC4)sc3c2)c(Cl)c1 | inactive: -0.069%
6 | CN(C)CCN(C(=O)c1ccc(S(=O)(=O)N2CCc3ccccc32)cc1)c1nc2ccc(F)cc2s1 | inactive: 0.496%
7 | COc1ccc2nc(NC(=O)C3CCN(S(=O)(=O)c4cccs4)CC3)sc2c1 | inconclusive: 11.9%
8 | Cc1nnc(NC(=O)c2ccc(-c3cccc(C(F)(F)F)c3)o2)s1 | inconclusive: 8.73%
9 | CN(C)CCN(C(=O)c1ccc2ccccc2c1)c1nc2c(F)cc(F)cc2s1 | inactive: 6.57%
10 | CCN(CC)c1nc(NN)nc(Nc2ccc(C)c(Cl)c2)n1 | inconclusive: 10.4%
11 | CCCCCCCCCCCC1N=C(N)NC(CCCO)=C1C(=O)OC (stereo not drawn) | inconclusive: 58.5%
12 | COc1ccc2cc(/C=N/NC(=O)c3ccc(CN(c4cccc(Cl)c4Cl)S(C)(=O)=O)cc3)c(Cl)nc2c1 | inconclusive: 16.1%
13 | COc1ccc2c(c1)[nH]c1c(=O)n(/N=C/c3ccc(OC)c(CN4CCCC4)c3)cnc12 | inconclusive: 11.4%
14 | C=CCn1c(COc2ccccc2F)nnc1SCC(=O)Nc1cc(C)on1 | inconclusive: 10.1%
15 | Cc1ccc(C(=O)NCCNc2nc3cc(C)c(C)cc3cc2C)cc1 | inactive: 0.725%
16 | C/C(=N\NC(=O)c1nnn(-c2nonc2N)c1CSc1ccc(C)cc1)c1ccco1 | inactive: 4.37%
17 | COc1ccc2cc1Oc1ccc(cc1)C[C@H]1c3cc(c(OC)cc3CCN1C)Oc1c(OC)c(OC)cc3c1[C@H](C2)N(C)CC3 | inconclusive: 22.4%
18 | Cc1cc(C)cc(NC(=O)CSc2nc(N)c(NC(=O)c3ccc(Br)o3)c(=O)[nH]2)c1 | inconclusive: 8.91%
19 | Cc1cc(C)c2nc(NCCCNC(=S)NCCCN(C)C)c(C#N)cc2c1 | inconclusive: 17.8%
20 | Cc1ccc(/C=N\NC(=O)Cc2noc3ccccc23)cc1 | inconclusive: 11%
21 | COc1ccc(/C=N/Nc2nc(Nc3ccccc3)nc(N3CCCC3)n2)cc1[N+](=O)[O-] | inconclusive: 7.13%
22 | CCN(CC)CCOc1ccc2c(c1)C(=NNC(=O)c1ccccn1)c1cc(OCCN(CC)CC)ccc1-2 | inconclusive: 50.2%
23 | CCOC(=O)c1c(CNCCN(CC)CC)n(C)c2cc(Br)c(OC)cc12 | inconclusive: 26.5%
24 | COc1ccc(NC(=O)c2cc(-c3ccc4c(c3)OCO4)on2)cc1OC | inactive: 2%
25 | COc1cc(C(=O)OCC(=O)NCc2ccccc2)cc(NC(=O)c2ccco2)c1OC | inactive: 2.12%
26 | Cc1ccc(NC(=O)CSC2=C(C#N)C(c3ccc4c(c3)OCO4)CC(=O)N2)cc1C (stereo not drawn) | inactive: 2.76%
27 | CCC(=O)Nc1ccc(Cl)c(NC(=S)NC(=O)COc2ccccc2)c1 | inconclusive: 5.59%
28 | C#CCOCCOCCOCCNc1nc(N2CCN(C(=O)[C@H](CCCCN)n3cc([C@@H](N)CC(C)C)nn3)CC2)nc(N2CCN(C(=O)[C@H](CCCCN)n3cc([C@@H](N)CC(C)C)nn3)CC2)n1 | inconclusive: 13.5%

Arranged by heavy-atom count (largest number first): three of the compounds above
Row | Compound | activation
13 | COc1ccc2c(c1)[nH]c1c(=O)n(/N=C/c3ccc(OC)c(CN4CCCC4)c3)cnc12 | inconclusive: 11.4%
23 | CCOC(=O)c1c(CNCCN(CC)CC)n(C)c2cc(Br)c(OC)cc12 | inconclusive: 26.5%
8 | Cc1nnc(NC(=O)c2ccc(-c3cccc(C(F)(F)F)c3)o2)s1 | inconclusive: 8.73%
